Measurements: US20130244929A1 (priority 2010, published 2013)

Experiment: general procedure: solution-phase peptide synthesis; EDCI/HOBT/DIPEA; HATU/DIPEA
Settings: coupling step, trifluoroacetate
Substance “methyl(8S,11S,14S)-14-[{(2S)-2-{[(benzyloxy)carbonyl]amino}-6-[(tert-butoxycarbonyl)amino]hexanoyl}(methyl)amino]-3,18-dimethoxy-11-methyl-10,13-dioxo-9,12-diazatricyclo[13.3.1.1^2,6]icosa-1(19),2(20),3,5,15,17-hexaene-8-carboxylate” has a step yield of 72%. “methyl(8S,11S,14S)-14-[{(2S)-6-[(tert-butoxycarbonyl)amino]-2-[(3-{[(4′-propylbiphenyl-4-yl)carbonyl]amino}propanoyl)amino]hexanoyl}(methyl)amino]-3,18-dimethoxy-11-methyl-10,13-dioxo-9,12-diazatricyclo[13.3.1.1^2,6]icosa-1(19),2(20),3,5,15,17-hexaene-8-carboxylate” showed a step yield of 76%.

Same assay, conditions: late stage modification step, trifluoroacetate
Work on “6-[[(7S,10S,13S)-13-(aminocarboxyl)-3,18-dihydroxy-10-methyl-8,11-dioxo-9,12-diazatricyclo[13.3.1.1^2,6]icosa-1(19),2(20),3,5,15,17-hexaen-7-yl](methyl)amino]-6-oxo-5-[(3-{[(4′-propylbiphenyl-4-yl)carbonyl]amino}propanoyl)amino]hexan-1-aminium trifluoroacetate” yielded a step yield of 67%. “(5S)-6-[[(7S,10S,13S)-3,18-dimethoxy-13-(methoxycarbonyl)-10-methyl-8,11-dioxo-9,12-diazatricyclo[13.3.1.1^2,6]icosa-1(19),2(20),3,5,15,17-hexaen-7-yl](methyl)amino]-6-oxo-5-[(3-{[(4′-propylbiphenyl-4-yl)carbonyl]amino}propanoyl)amino]hexan-1-aminium trifluoroacetate” gave a step yield of 100%. In the case of “(5S)-6-[[(7S,10S,13S)-13-carboxy-3,18-dihydroxy-10-methyl-8,11-dioxo-9,12-diazatricyclo[13.3.1.1^2,6]icosa-1(19),2(20),3,5,15,17-hexaen-7-yl](methyl)amino]-6-oxo-5-[(3-{[(4′-propylbiphenyl-4-yl)carbonyl]amino}propanoyl)amino]hexan-1-aminium trifluoroacetate”, the step yield is reported as 54%. Work on “methyl(8S,11S,14S)-14-[{(2S)-2-amino-6-[(tert-butoxycarbonyl)amino]hexanoyl}(methyl)amino]-3,18-dimethoxy-11-methyl-10,13-dioxo-9,12 diazatricyclo[13.3.1.1^2,6]icosa-1(19),2(20),3,5,15,17-hexaene-8-carboxylate” yielded a step yield of 93%.
